Drawing on PubChem BioAssay AID493014 (National Center for Advancing Translational Sciences (NCATS), 2011), this text covers AC50 for 39 compounds.

Usually AC50 stands for the concentration at which the activity in the assay is half-maximal.

The nature of this assay: qHTS Assay to Find Inhibitors of Chronic Active B-Cell Receptor Signaling. The settings on record: ABC-DLBCL IkBa-CBG/CBR reporter, luminescence ratio (green luciferase fused to IkBa over red control in TMD8 lymphoma cells), 4 h. In outline:
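Doxycycline induced both beetle luciferases in TMD8 lymphoma cells; IKK-driven degradation limits the IkappaBalpha-fused green signal, while red luminescence normalises for cell number and nonspecific effects. Compounds tested up to 46 uM, 4 hrs.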
For orientation: qHTS replaces the single test concentration by a dilution series.

Where [1] appears, read: measured here: CBR red luminescence, cell number.
Where [2] appears, read: measured here: IkBa-CBG green luminescence.

This is one part of the list. The main result of the screen is listed elsewhere. These columns were measured beside it and carry no call. Compounds called inactive in the main read-out are mostly missing here. Potencies come from curve fits of mixed quality, noted in brackets.

Regarding `Cc1c(C(=O)Nc2ccc(S(=O)(=O)Nc3ncccn3)cc2)oc2ccc(F)cc12`, under setting [1], the AC50 is 8.91 µM [falling, partial curve, poor fit].
With `O=C(CSc1nc2ccccc2[nH]1)c1c[nH]c2ccccc12`, under setting [1], the AC50 is 10 µM [falling, partial curve, poor fit].
On the same count and under the same terms, with `CCCC(=O)c1cn(CC(=O)OC)c2ccccc12` the figure was 35.5 µM [rising, single point].
With `CCN(CC)c1ccc2cc(NC(=O)CCC(=O)O)c(=O)oc2c1`, the AC50 under setting [1] was 1.46 µM [falling, full curve].
With `CCN(CC)S(=O)(=O)c1cc(C(=O)OC)ccc1Cl`, under setting [1], the half-maximal activity concentration (AC50) was 20 µM [rising, single point].
On to `Cc1ccc(-c2cc(C(F)(F)F)n3ncc(C(=O)N4CCN(C)CC4)c3n2)cc1`, for which the AC50 under setting [1] is 12.6 µM [rising, partial curve].
For `Cn1nc(C(F)(F)F)c(C(=O)Nc2ccc(F)cc2F)c1Sc1ccc(Cl)cc1`, under setting [1], the AC50 is 35.5 µM [falling, single point].
Still for that read-out and setting: then `Cc1ccc(/C=N/NC(=O)c2cccc3ccccc23)o1`, with 17.8 µM [falling, partial curve, poor fit].
As to `Cc1ccc(Cn2nnc3c(=O)[nH]c(C4CCN(S(=O)(=O)c5ccc(S(=O)(=O)NC6CC6)cc5)CC4)nc32)cc1`, the AC50 under setting [1] is 1.26 µM [falling, full curve, poor fit].
For the compound `Cc1cccc(C2c3[nH]c4ccccc4c3CCN2C(=O)Cc2n[nH]c(C)n2)n1` (stereo not drawn), the AC50 under setting [1] is 6.31 µM [rising, partial curve, poor fit].
On to `CS(=O)(=O)NCCOc1ccc(S(=O)(=O)NCCOc2ccccc2)cc1`, for which the AC50 under setting [1] is 2.51 µM [rising, full curve, poor fit].
As to `O=C(CSc1nnc(-c2cc3ccccc3cc2O)n1Cc1ccco1)c1ccc(F)cc1`, the AC50 under setting [1] was 31.6 µM [falling, single point].
The same measure, in the same setting: then `COc1cccc(NC(=O)CSc2nc3ccccc3n2C)c1`, with 35.5 µM [falling, single point]; and `Brc1ccc(-c2csc(-c3ccncc3)n2)cc1`, with 1.84 µM [rising, full curve].
Regarding `CCCS(=O)(=O)Nc1ccc(-c2ccc3nnc(C)n3n2)cc1`, the AC50 under setting [1] was 7.94 µM [rising, partial curve] and the AC50 under setting [2] was 17.8 µM [falling, partial curve, poor fit].
On to `O=C(N/N=C\C=C\c1ccc([N+](=O)[O-])o1)c1cccs1`, for which the AC50 under setting [1] was 35.5 µM [falling, single point].
Same read-out and setting: with `CC(=O)n1c(C=Nc2ccccc2)c(O)c2ccccc21` the figure was 0.316 µM [falling, full curve, poor fit]; with `COc1cccc(-n2cc3c(c2-c2ccccc2)c(=O)n(C)c(=O)n3C)c1`, 35.5 µM [falling, single point].
Consider `COC(=O)c1cc(=O)n(C2CC2)c(=NC2CC2)s1`, for which the AC50 under setting [1] is 8.91 µM [falling, partial curve].
`CCN(CC)CCNc1nc(-c2ccco2)c2c(c1C#N)CC(C)(C)OC2`: the AC50 under setting [1] was 1.26 µM [falling, full curve].
Consider `O=C(C1=NN[C@@H]2C(=O)N(c3cccc(F)c3)C(=O)[C@H]12)c1ccc2ccccc2n1`, for which, under setting [1], the AC50 is 29.1 µM [falling, single point].
With `CSC1=NSC2=NC(=O)/C(=C\c3ccc(OC(=O)c4ccco4)cc3)C(=N)N12`, the AC50 under setting [1] is 1.12 µM [rising, partial curve, poor fit].
For the compound `Cc1ccc(Nc2c(N)c(=O)oc3ccccc23)cc1`, the AC50 under setting [1] was 2.59 µM [rising, partial curve].
Consider `COc1ccc2c(c1)C(=O)N1[C@H]3c4cc(OC)ccc4OC[C@@H]3[C@H](c3ccccc3)[C@]1(C)C(=O)N2`, for which the concentration at half-maximal activity (AC50) under setting [1] is 9.2 µM [falling, partial curve, poor fit] and the AC50 under setting [2] is 18.4 µM [rising, partial curve, poor fit].
Regarding `COc1ccc(C)cc1S(=O)(=O)Nc1cc2c3c(c1)CCN3C(=O)CC2`, the AC50 reads like this: under setting [1], 29.1 µM [rising, single point]; under setting [2], 18.4 µM [falling, partial curve, poor fit].
Take `Cc1ccc(-n2ncc3c(NCCCn4ccnc4)ncnc32)cc1Cl`: the AC50 under setting [1] was 12.6 µM [falling, partial curve].
For `CC(C)CC(COCc1cccc(Cl)c1)N1CCN(C(=O)c2ccc(C(F)(F)F)cc2)CCC1=O` (stereo not drawn), the AC50 under setting [1] was 23.1 µM [falling, single point].
Same read-out and setting: then `Cc1ccc(-c2nc3nc4ccccc4nc3n2Cc2ccco2)cc1`, with 7.31 µM [falling, partial curve]; and `C#CCSc1nnc(-c2sc3ccccc3c2Cl)o1`, with 3.16 µM [rising, partial curve, poor fit]; and `CNNC(=S)Nc1cccc(C(F)(F)F)c1`, with 0.794 µM [rising, full curve, poor fit].
For `COc1cccc(CN2CCN(Cc3cccc(Oc4ccccc4)c3)CC2)c1OC`, the AC50 under setting [1] is 0.447 µM [rising, partial curve, poor fit].
As for `Nc1ccc2oc(-c3ccc4nc[nH]c4c3)nc2c1`, the AC50 under setting [1] was 11.6 µM [falling, single point].
Take `O=C(Cc1ccc(F)cc1)NCc1cccnc1`: the AC50 under setting [1] is 6.31 µM [rising, single point].
The same measure, in the same setting: then `Cc1ccc(-n2c(C)c(C)c3c(NCCN(C)C)ncnc32)cc1`, with 35.5 µM [rising, single point].
Regarding `c1ccc(-c2cn3nc(-c4ccccc4)c(-c4ccccc4)nc3n2)cc1`, the AC50 under setting [1] was 6.31 µM [rising, partial curve].
Consider `Cc1cccc(NC(=O)CN2CCc3cc4c(cc3C2)OCCCO4)c1`, for which, under setting [1], the AC50 was 20 µM [falling, single point].
`CCc1cc(C(=O)c2ccc(OC)cc2)c(NC(=O)COCC(=O)O)s1`: under setting [1], the concentration at half-maximal activity (AC50) is 8.91 µM [falling, partial curve, poor fit].
On to `CCOc1ccc(C2NC(=O)C(C#N)=C(S)N2c2ccc(OC)cc2)cc1OC` (stereo not drawn), for which the AC50 was 31.6 µM [falling, single point] under setting [1] and 15.8 µM [falling, single point] under setting [2].
Regarding `CCOC(=O)C1=C(C)NC(C)=C(C(=O)OCC)C1c1cc2ccc(C)cc2[nH]c1=O`, the AC50 under setting [1] is 1.12 µM [rising, full curve, poor fit].
